Drawing on article PMC5008907, this text covers binding for one molecule.

The chains behind the UniProt entries cited, without tags or fusion partners.
UniProt P51140: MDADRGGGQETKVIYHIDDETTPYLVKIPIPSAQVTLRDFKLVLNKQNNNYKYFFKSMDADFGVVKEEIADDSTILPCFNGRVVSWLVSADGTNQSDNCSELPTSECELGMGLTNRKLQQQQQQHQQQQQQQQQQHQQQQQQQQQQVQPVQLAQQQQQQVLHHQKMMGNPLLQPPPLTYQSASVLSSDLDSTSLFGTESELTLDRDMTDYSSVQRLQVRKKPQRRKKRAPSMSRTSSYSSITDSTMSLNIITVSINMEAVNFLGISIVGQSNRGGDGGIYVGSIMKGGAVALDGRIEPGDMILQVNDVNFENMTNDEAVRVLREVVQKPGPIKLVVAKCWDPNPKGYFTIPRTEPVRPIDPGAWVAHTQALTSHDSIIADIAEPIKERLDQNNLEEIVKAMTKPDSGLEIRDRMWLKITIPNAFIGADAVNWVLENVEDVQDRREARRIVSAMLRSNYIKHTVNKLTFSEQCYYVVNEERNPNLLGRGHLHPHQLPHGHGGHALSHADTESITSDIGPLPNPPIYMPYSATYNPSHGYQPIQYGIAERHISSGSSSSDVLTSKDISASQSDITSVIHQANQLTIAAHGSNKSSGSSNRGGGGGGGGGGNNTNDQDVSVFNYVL

Assay [1] addresses Myc-tagged Dishevelled (Dsh-Myc) (D. melanogaster) (UniProt P51140). The experiment in a line: co-IP; S2 cell lysates in NP-40 buffer (1% NP-40, 150 mM NaCl, 50 mM Tris-Cl, pH 8); agarose anti-Myc or anti-HA; Dsh-Myc transfected, Dlg1 endogenous or transfected as HA-Dlg1.
Assay [2] has as its target GFP-tagged Dishevelled (Dsh-GFP) expressed under the dsh promoter (D. melanogaster) (UniProt P51140). The experiment in a line: co-IP; lysates of third instar wing imaginal discs expressing dsh-gfp under the dsh promoter, NP-40 buffer; agarose anti-GFP.

No constants are given. Whether binding was seen depends on the method and setting. In cells and extracts the contact can be indirect. Some binding calls cover weakened binding; strength is not graded here.

B1: Discs large 1 (Dlg1), endogenous (protein, UniProt P31007 1-970)
chain: MPVKKQEAHRALELLEDYHARLSEPQDRALRIAIERVIRIFKSRLFQALLDIQEFYELTLLDDSKSIQQKTAETLQIATKWEKDGQAVKIADFIKSSNLNRNCAYEFNNDASSNQTNQSALNQNPIANNVSAQAQAEALSRTFKSELEEILNQRMRIESDTENAKEPTVEQQQKQQQAQQRSSRSPQQQNPQQQQGSKSRSGSQTVNGDDSWLYEDIQLERGNSGLGFSIAGGTDNPHIGTDTSIYITKLISGGAAAADGRLSINDIIVSVNDVSVVDVPHASAVDALKKAGNVVKLHVKRKRGTATTPAAGSAAGDARDSAASGPKVIEIDLVKGGKGLGFSIAGGIGNQHIPGDNGIYVTKLMDGGAAQVDGRLSIGDKLIAVRTNGSEKNLENVTHELAVATLKSITDKVTLIIGKTQHLTTSASGGGGGGLSSGQQLSQSQSQLATSQSQSQVHQQQHATPMVNSQSTEPGSRYASTNVLAAVPPGTPRAVSTEDITREPRTITIQKGPQGLGFNIVGGEDGQGIYVSFILAGGPADLGSELKRGDQLLSVNNVNLTHATHEEAAQALKTSGGVVTLLAQYRPEEYNRFEARIQELKQQAALGAGGSGTLLRTTQKRSLYVRALFDYDPNRDDGLPSRGLPFKHGDILHVTNASDDEWWQARRVLGDNEDEQIGIVPSKRRWERKMRARDRSVKFQGHAAANNNLDKQSTLDRKKKNFTFSRKFPFMKSRDEKNEDGSDQEPFMLCYTQDDANAEGASEENVLSYEAVQRLSINYTRPVIILGPLKDRINDDLISEYPDKFGSCVPHTTRPKREYEVDGRDYHFVSSREQMERDIQNHLFIEAGQYNDNLYGTSVASVREVAEKGKHCILDVSGNAIKRLQVAQLYPVAVFIKPKSVDSVMEMNRRMTEEQAKKTYERAIKMEQEFGEYFTGVVQGDTIEEIYSKVKSMIWSQSGPTIWVPSKESL
Consider B1, for which the binding result in assay [1] and in assay [2] was “binds” each time.
